Data on 38 molecules can be found in PubChem BioAssay AID493014 (National Center for Advancing Translational Sciences (NCATS), 2011).

The list shows a part of the results. The main result of the screen is listed elsewhere. These columns were measured beside it and carry no call. Most of these compounds were active or inconclusive in the main read-out, so they are no random draw. Potencies come from curve fits of mixed quality, noted in brackets.

The test is described as follows: qHTS Assay to Find Inhibitors of Chronic Active B-Cell Receptor Signaling. Conditions: ABC-DLBCL IkBa-CBG/CBR reporter, luminescence ratio (green luciferase fused to IkBa over red control in TMD8 lymphoma cells), 4 h. Put shortly:
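Compounds up to 46 uM were incubated four hours with TMD8 cells whose green CBG68 luciferase is fused to IkappaBalpha; red CBR luminescence normalised the signal, and concentration-effect curves were fitted to fusion, red and ratio data.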
On the technique in general: qHTS replaces the single test concentration by a dilution series.

The mark [1] stands for this setting: measured here: CBR red luminescence, cell number.
Where [2] appears, read: measured here: IkBa-CBG green luminescence.

For orientation: AC50 means the concentration at which the activity in the assay is half-maximal.

For the molecule `O=C(Nc1cccc(NC(=O)c2cccnc2Cl)c1)c1ccco1`, under setting [1], the AC50 is 5.8 µM [falling, full curve].

On to `COC(=O)c1cccc(CSc2nnc(C)s2)c1`, for which, under setting [1], the AC50 is 10 µM [rising, partial curve, poor fit].

On to `COc1ccccc1C(=O)Nc1ccc(OCC(=O)N2CC(C)OC(C)C2)cc1` (stereo unspecified), for which the AC50 under setting [2] is 16.4 µM [rising, partial curve, poor fit].

Take `C=CCn1c(O)c(N=NC(=S)Nc2ccccc2F)c2ccccc21`: the AC50 by setting is: under setting [1], 3.55 µM [rising, partial curve]; under setting [2], 4.47 µM [falling, single point].

For `CC(C)(C)OC(=O)NCCCC[C@H](NC(=O)c1nc[nH]c1C(=O)NC1CCN(C(=O)OC(C)(C)C)CC1)C(=O)OC(C)(C)C`, under setting [1], the concentration at half-maximal activity (AC50) is 35.5 µM [falling, partial curve, poor fit].

Turning to `COc1ccc(C(=O)OCC(=O)Nc2cc(C)on2)c(OC)c1OC`, under setting [1], the concentration at half-maximal activity (AC50) is 14.1 µM [rising, partial curve, poor fit].

`O=C(Nc1cccc(F)c1)c1ccc2c(c1)OCO2`: the AC50 by setting is: under setting [1], 5.17 µM [falling, single point]; under setting [2], 2.91 µM [rising, partial curve, poor fit].

On to `Cc1cc(NC(=O)c2ccc(S(=O)(=O)N3CCc4ccccc43)cc2)no1`, for which, under setting [1], the AC50 is 6.31 µM [falling, full curve].

As to `O=C(NCCN1CCCCC1)Nc1ccc(Br)cc1`, the AC50 under setting [1] is 12.6 µM [rising, partial curve, poor fit].

As for `Cc1nc(N2CCN(C)CC2)c2sc(=S)n(C)c2n1`, the AC50 under setting [1] is 2.91 µM [falling, single point].

On to `C#CCOCCOCCOCCNc1nc(N2CCN(C(=O)CCCCCCCCCCNC(=O)Cn3cc(C[C@@H](C)O)nn3)CC2)nc(N2CCN(C(=O)CCCCCCCCCCNC(=O)[C@H](CCCCN)n3cc(CCCC(=O)O)nn3)CC2)n1`, for which the AC50 under setting [1] was 14.6 µM [rising, partial curve].

Consider `Cn1c(=NC(=O)CCS(=O)(=O)c2ccccc2)sc2cc(F)ccc21`, for which the AC50 under setting [1] was 3.66 µM [rising, full curve, poor fit].

In the case of `COc1cccc(C(=O)NNC2OC(CO)C(O)C2O)c1` (stereo unspecified), the AC50 under setting [1] is 1.41 µM [falling, full curve].

Regarding `Cc1cccc(-c2n[nH]c([N+](=O)[O-])n2)c1`, the AC50 under setting [1] was 6.31 µM [falling, partial curve].

`COC(=O)Cn1cc(C(=O)C2CC2)c2ccccc21`: the AC50 under setting [1] was 0.146 µM [rising, full curve, poor fit].

Turning to `CC(C)C(=O)Nc1ccc(C(=O)CN2C(=O)NC3(CCOc4ccccc43)C2=O)cc1` (stereo unspecified), the AC50 under setting [1] is 0.206 µM [rising, full curve, poor fit].

On to `O=C(CCCCCN1C(=O)CCC1=O)Nc1ccc2c(c1)OCCO2`, for which the AC50 under setting [1] is 1.64 µM [rising, partial curve, poor fit].

Turning to `Cn1c(=O)[nH]c(=O)c2c1nc(N1CCCCCC1)n2CC(N)=O`, the AC50 under setting [1] is 9.2 µM [rising, partial curve, poor fit].

In the case of `COc1cc(-c2nc(-c3ccccc3)c(-c3cccs3)[nH]2)cc(OC)c1O`, under setting [1], the AC50 is 29.1 µM [falling, single point].

`CC1CCC(N2CC(=O)N(C3CCCC3)C(c3ccc(Cl)cc3)C2=O)CC1` (stereo unspecified): under setting [1], the AC50 was 35.5 µM [rising, single point].

For `CC(=O)Nc1cccc(/C(C)=N/NC(=O)c2cc(-c3ccncc3)nc3ccccc23)c1`, under setting [1], the AC50 is 5.62 µM [rising, full curve, poor fit].

`Nc1nc(-c2ccccc2)c(N=Nc2cccnc2)s1`: under setting [1], the AC50 is 0.708 µM [falling, full curve].

Take `COc1cccc(/C=C/c2n[nH]c(=O)c(C#N)c2C)c1`: the AC50 under setting [1] is 17.8 µM [falling, partial curve, poor fit].

On to `COc1ccccc1C1C2=C(N=c3s/c(=C/c4cccc(OCC(=O)O)c4)c(=O)n31)c1ccccc1CC2` (stereo unspecified), for which the AC50 under setting [1] was 25.9 µM [falling, single point].

For `O=C1CS/C(=C\[N+](=O)[O-])N1c1ccc(OC(F)(F)F)cc1`, under setting [1], the AC50 was 17.8 µM [falling, partial curve, poor fit].

In the case of `Cc1cnc(NC(=O)Nc2ccc(OCc3ccccc3)cc2)c(Br)c1`, the AC50 under setting [1] is 17.8 µM [falling, partial curve, poor fit].

For the molecule `COc1ccc(CNC(=O)CCCNS(=O)(=O)c2cccc3nonc23)cc1`, under setting [1], the AC50 is 18.4 µM [rising, partial curve, poor fit].

For the molecule `Cc1ccc(C(=O)Nc2cccc(C(=O)N3CCN(C)CC3)c2)cc1`, the AC50 under setting [1] was 2.82 µM [falling, partial curve, poor fit].

`CN(C)c1ccc(/C=N/NC(=O)c2ccc3c(c2)OCCO3)cc1`: the AC50 under setting [1] is 4.47 µM [falling, full curve].

`Cc1ccc(S(=O)(=O)N(CC(O)CN2C(=O)NC(C)(C)C2=O)c2cccc([N+](=O)[O-])c2)cc1` (stereo unspecified): the AC50 under setting [1] was 35.5 µM [falling, single point].

Take `COC(C[C@H]1O[C@H]1[C@H](O)[C@@H](C)OCc1ccccc1)OC`: the AC50 under setting [1] was 6.31 µM [rising, full curve, poor fit].

For `CCOC(=O)c1c(NC(=O)CCN2C(=O)c3ccccc3C2=O)sc(C(=O)OC(C)C)c1C`, under setting [1], the AC50 is 3.55 µM [falling, single point].

For the molecule `O=C(Cc1cc(=O)[nH][nH]1)N/N=C/C=C/c1ccccc1`, the concentration at half-maximal activity (AC50) under setting [1] was 3.16 µM [rising, single point].

With `O=C(c1ccc([N+](=O)[O-])s1)N1CCCc2ccccc21`, the AC50 under setting [1] is 3.55 µM [rising, partial curve, poor fit].

With `COc1cc(C2C(C(=O)c3ccc(C)o3)=C(O)C(=O)N2c2cc(C)on2)ccc1OCc1ccccc1` (stereo unspecified), the AC50 under setting [1] was 11.2 µM [rising, partial curve, poor fit].

Turning to `O=C(C1CCCN(S(=O)(=O)c2ccccc2)C1)N1CCCc2ccccc21` (stereo unspecified), the AC50 under setting [1] is 11.6 µM [falling, partial curve, poor fit].

In the case of `Cc1ccc(-n2c(SCC(=O)N3CC(=O)Nc4ccccc43)nc3ccccc3c2=O)cc1C`, under setting [1], the half-maximal activity concentration (AC50) was 6.51 µM [falling, partial curve, poor fit].

As for `O=C(CBr)c1ccc([N+](=O)[O-])c(CS(=O)(=O)c2ccc(Cl)cc2)c1`, the AC50 reads like this: under setting [1], 35.5 µM [falling, single point]; under setting [2], 35.5 µM [rising, partial curve, poor fit].
